Source: PubChem BioAssay AID1347075 (National Center for Advancing Translational Sciences (NCATS), 2019)
The campaign covered roughly 400,000 compounds. About 5,500 (1.4%) were called active. Inconclusive means that the source gave no clear call. Such entries were picked first, then a sample of the others. The call rests on the fitted dose curve; in most records, active means well fitted cell-killing curve with a large enough effect; inconclusive means small, poorly fitted or top-dose-only effect, or effect the other way; inactive means flat fitted curve, though single readings scatter. Potencies of inconclusive entries are doubtful fits and often do not repeat.
On the % scale 0 is the no-effect control and ±100 the full control effect; potency means the concentration at half of the fitted maximal effect.

Test: qHTS assay for MDR1-selective chemotherapeutics: Primary screen using the parental adenocarcinoma cell KB-3-1; further: nearly all actives have a fitted effect of over 60% in size
Settings: KB-3-1 viability, CellTiter-Glo ATP luminescence, 72 h; activity change, negative = cytotoxic: at 46.1 µM (top of the series)
How it was run: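 Cells are dispensed, compounds pinned in, plates held at 37 °C for 72 h, then CellTiter-Glo is added and luminescence read after 10 minutes. Cell line: parental KB-3-1 in phenol-red-free DMEM, 10% FBS.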
In the case of `COc1ccc(-c2noc(C3CC(=O)N(c4ccc(C)c(F)c4)C3)n2)c(OC)c1` (stereo unspecified), the “activity change, negative = cytotoxic” value is reported as inactive: -18.8%. For `CCC(c1nnnn1Cc1ccc(F)cc1)N1CCN(C2CCCCC2)CC1` (stereo unspecified), the Potency was inconclusive: 20.6 µM [cytotoxic, single point]. With `CCN1C(=O)[C@H]2[C@@H](c3ccc(-c4ccc(Cl)c(Cl)c4)cc3)N3CCCC[C@@]3(C(=O)OC)[C@H]2C1=O` the Potency was inconclusive: 29.1 µM [cytotoxic, single point]. In the case of `O=C(OCn1nnc2ccccc2c1=O)c1ccc(F)c(S(=O)(=O)N2CCOCC2)c1`, the “activity change, negative = cytotoxic” value is reported as inactive: 0.284%. With `O=C1CC(=C(c2ccccc2)c2ccccc2)C(=O)N1CCCCN1CCN(c2ccccc2)CC1` the Potency was active: 20.6 µM. In the case of `Cc1ccc(-c2nc3ccc(Cl)cc3c(=O)n2O)cc1`, the Potency is reported as inconclusive: 29.1 µM [cytotoxic, single point]. With `Nc1nc(=S)c2[nH]cnc2[nH]1` the Potency was active: 1.03 µM. For `O=C(Nc1ccc(N2CCN(C(=O)c3cccs3)CC2)cc1)c1cccc(F)c1`, the Potency was active: 18.4 µM. In the case of `COC(=O)[C@H](C)NC(=O)c1cc2c(cn1)[nH]c1ccccc12`, the “activity change, negative = cytotoxic” value is reported as inactive: 6.2%. With `Cc1cc(C)cc(OCC(=O)Nc2cccc(-c3nc4ncccc4o3)c2)c1` the “activity change, negative = cytotoxic” value was inactive: -18.1%. For `O=C(CCNC(=O)C1CCN(S(=O)(=O)c2ccccc2)CC1)NCc1cccc(C(F)(F)F)c1`, the Potency was inconclusive: 2.59 µM [cytotoxic, full curve]. With `C=CCNc1nc(-c2ccccn2)nnc1-c1ccccc1` the Potency was inconclusive: 29.1 µM [cytotoxic, single point]. For `Cc1ccc(N(C)S(=O)(=O)c2cccc(C(=O)NC3=NCCS3)c2)cc1`, the Potency was inconclusive: 20.6 µM [cytotoxic, single point]. In the case of `C/C=C/C=C(/NC(=O)c1ccccc1)C(=O)Nc1ccccc1`, the “activity change, negative = cytotoxic” value is reported as inactive: -0.399%. For `COc1ccc(C(C(=O)NC2CCCCC2)N(C(=O)c2snc(C(N)=O)c2N)c2ccc(OC)cc2OC)cc1` (stereo unspecified), the Potency was inconclusive: 29.1 µM [cytotoxic, single point]. For `O=C(Nc1nsc(-c2ccccc2)n1)c1ccc(F)cc1`, the “activity change, negative = cytotoxic” value was inactive: 7.35%. For `N#Cc1c(NC(=O)/C=C/c2ccco2)sc2c1CCCC2`, the Potency was active: 0.411 µM. For `COc1ccc(CCCNC(=O)C2Cc3c(-c4ccc5c(c4)OCO5)ccnc3O2)cc1` (stereo unspecified), the Potency was inconclusive: 29.1 µM [cytotoxic, single point]. In the case of `Cc1ccc2c(C)nc(N/C(N)=N/S(=O)(=O)c3ccccc3)nc2c1`, the “activity change, negative = cytotoxic” value is reported as inactive: 3.82%. In the case of `O=C(Nc1ccc(O)cc1)c1cc(S(=O)(=O)N2CCCC2)ccc1Cl`, the Potency is reported as inconclusive: 20.6 µM [cytotoxic, single point]. With `NNC(=O)C(Cc1cnc[nH]1)NC(=O)OCc1ccccc1` (stereo unspecified) the “activity change, negative = cytotoxic” value was inactive: 0.625%. For `CCC(NC(=O)Nc1nnc(C(F)(F)F)s1)(C(F)(F)F)C(F)(F)F`, the Potency was active: 10.3 µM. In the case of `O=C(Nc1nnc(C2CC2)s1)c1cc(-c2ccccc2)nn1-c1ccccc1`, the Potency is reported as inconclusive: 16.4 µM [cytotoxic, single point]. With `COc1cccc(/C=N/Nc2nc(Nc3ccc([N+](=O)[O-])cc3)nc(N3CCCC3)n2)c1O` the Potency was active: 16.4 µM. For `Cc1ccc(C)c(N2CCN(c3ncnc4onc(C)c34)CC2)c1`, the Potency was inconclusive: 5.8 µM [cytotoxic, full curve]. In the case of `COc1ccc(-c2cc(C(=O)N(C)CC(=O)Nc3ccccc3Cl)c3ccccc3n2)cc1OC`, the Potency is reported as inconclusive: 6.51 µM [rising, full curve]. In the case of `Cc1ccc(C=NNC(=O)c2cc(-c3cccnc3)nc3ccccc23)o1`, the Potency is reported as inconclusive: 29.1 µM [cytotoxic, single point]. For `CC(C)NC(=O)N(C)C[C@@H]1Oc2ccc(NC(=O)CCN3CCOCC3)cc2CC(=O)N([C@@H](C)CO)C[C@@H]1C`, the “activity change, negative = cytotoxic” value was inactive: 4.5%. For `O=C(Cn1nnc(-c2cccc(C(F)(F)F)c2)n1)NCc1ccc(F)cc1`, the “activity change, negative = cytotoxic” value was inactive: 20.9%. For `Cc1ccc(NC(=O)c2cccc(S(=O)(=O)N3CCN(c4ccc(F)cc4)CC3)c2)nc1`, the Potency was active: 16.4 µM. For `CN1CCN(c2ccc([N+](=O)[O-])cc2C(=O)c2ccccc2)CC1`, the Potency was inconclusive: 29.1 µM [cytotoxic, single point]. In the case of `O=[N+]([O-])c1cc(S(=O)(=O)N2CCCC2)ccc1N/N=C/c1cccnc1`, the “activity change, negative = cytotoxic” value is reported as inactive: -4.71%. For `CC(OC(=O)Cc1c(F)cccc1Cl)C(=O)NC1CCCCC1C` (stereo unspecified), the Potency was inconclusive: 29.1 µM [cytotoxic, single point]. For `CCN(CC)S(=O)(=O)c1ccc2c(c1)c(=O)c(C(=O)N1CCN(c3ccccc3OC)CC1)cn2C`, the Potency was inconclusive: 14.6 µM [rising, partial curve, poor fit]. With `Cc1cc(NC(=O)c2ccc3[nH]c(C)c(C)c3c2)ccn1` the Potency was inconclusive: 18.4 µM [cytotoxic, single point]. With `CC(=O)c1ccc(NC(=S)NCCCn2ccnc2)cc1` the Potency was inconclusive: 16.4 µM [rising, partial curve, poor fit]. In the case of `CC(=O)NC(c1ccc(C)cc1)c1cc(Cl)c2cccnc2c1O` (stereo unspecified), the Potency is reported as active: 5.8 µM. With `Cc1cc(OCC#N)nc(N)n1` the “activity change, negative = cytotoxic” value was inactive: 0.0725%. For `CCOC(=O)c1c(C)n(-c2ccc(C)cc2)c2ccc(O)c(CN(C)C)c12`, the “activity change, negative = cytotoxic” value was inactive: 0%. With `O=S(=O)(c1ccccc1)N1N=C(c2ccccc2)CC1c1ccccc1F` (stereo unspecified) the Potency was inconclusive: 18.4 µM [cytotoxic, partial curve]. For `O=C(CCNS(=O)(=O)c1ccc(Cl)cc1)N1CCN(c2ncccn2)CC1`, the Potency was inconclusive: 29.1 µM [rising, single point]. In the case of `COc1cc(CN2C[C@@H](CO)O[C@@H](n3cnc4c(NCCCO)ncnc43)C2)cc(OC)c1OC`, the “activity change, negative = cytotoxic” value is reported as inactive: 0%. For `Cc1cc(S(=O)(=O)NCCc2csc(-c3cccc(F)c3)n2)ccc1F`, the activity change, negative = cytotoxic was inconclusive: -18.8%. For `CCc1ccc(N(C(=O)c2snc(C(N)=O)c2N)C(C(=O)NC2CCCC2)c2ccco2)cc1` (stereo unspecified), the Potency was inconclusive: 29.1 µM [cytotoxic, single point]. With `CCN(Cc1ccccc1)C(=S)NC(=O)c1ccccc1Br` the Potency was inconclusive: 25.9 µM [cytotoxic, partial curve, poor fit]. With `COc1cc(-c2cc(-c3ccc(O)cc3)nc(N)c2C#N)ccc1O` the Potency was inconclusive: 29.1 µM [cytotoxic, single point].
